Experimental data: patent US20130052176
For some of these results: A negative result means that nothing was seen under these conditions. For some of these results: Weaker means in comparison with the reference protein, sequence or condition of that experiment. For some of these results: Protein sequences can lack the tags named with them.

Chains of the proteins cited; added tags and fusions are not shown. Residues count along the entry.
UniProt P01138, 122-241: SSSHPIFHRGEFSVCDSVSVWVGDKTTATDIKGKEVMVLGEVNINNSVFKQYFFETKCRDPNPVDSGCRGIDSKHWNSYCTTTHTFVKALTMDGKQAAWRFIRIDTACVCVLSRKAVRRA
UniProt P23560, 129-247: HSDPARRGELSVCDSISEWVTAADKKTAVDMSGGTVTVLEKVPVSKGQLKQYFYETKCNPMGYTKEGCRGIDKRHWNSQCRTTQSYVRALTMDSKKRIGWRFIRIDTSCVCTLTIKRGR
UniProt P34130, 81-210: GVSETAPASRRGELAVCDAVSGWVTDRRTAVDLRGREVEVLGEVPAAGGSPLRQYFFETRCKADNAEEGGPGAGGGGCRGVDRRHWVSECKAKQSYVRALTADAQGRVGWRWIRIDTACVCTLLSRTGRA

Tests used:
[1] = molecular target: NGF (nerve growth factor) (human) (UniProt P01138); assay: activity in cells; details: T is 5-BrdU; neurite outgrowth; TF-1 IC50 also >200 nM; purified recombinant protein; protein details: human NGF; single-stranded DNA
[2] = molecular target: BDNF (human) (UniProt P23560); assay: SPR; details: 2'-F pyrimidines; 2'-OMe purines except 2'-OH at 3,5,19-22,24,26; 5' idT and 3' idT; purified recombinant protein; protein details: R&D systems; variant of aptamer ID 26
[3] = molecular target: NT-4/5 (human) (UniProt P34130); assay: SPR; details: 2'-F pyrimidines; 2'-OMe purines except 2'-OH at 3,5,19-22,24,26; 5' idT and 3' idT; purified recombinant protein; protein details: R&D systems; variant of aptamer ID 26
[4] = molecular target: T1, NT-3 (human) (UniProt P20783); assay: activity in cells; details: purified recombinant protein
T1 sequence (looked up, limits assumed): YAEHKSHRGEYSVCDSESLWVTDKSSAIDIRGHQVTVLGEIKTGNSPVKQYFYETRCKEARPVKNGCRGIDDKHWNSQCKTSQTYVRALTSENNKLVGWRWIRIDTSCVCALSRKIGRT

[5] = molecular target: NGF (nerve growth factor) (human) (UniProt P01138); assay: SPR; details: 2'-F at all pyrimidines; 2'-OMe at g19; g19 2'-OMe eliminates binding; purified recombinant protein; variant of aptamer ID 26

ATATATATGGGAGGACGATGCGGGCACACTTAAATCCACTTCACCTTACAATTCCTTTATCTGCAGACGACGAGCGGGAAAAAAAA [WO02/077262 Seq ID No. 38]
IC50 [1]: > 0.2 µM

ATATATATGGGAGGACGATGCGGGCCCCAAACACTTGTTCCTATCTTTCAACCCCCCTTGATCCAGACGACGAGCGGGAAAAAAAA [WO02/077262 Seq ID No. 42]
IC50 [1]: > 0.2 µM

GGGAGACUCGCCAGAGUUGAAAGAAACCCAAAUAAGUGUGCGCAC [aptamer ID 26(2)]
binding result [2]: binds more weakly
binding result [3]: binds more weakly
IC50 ([4]; 5' and 3' idT, 2'-F all pyrimidines, 2'-OMe purines except ribo g3,g5,g19,a20,a21,a22,a24,a26, TF-1 TrkC/p75 proliferation, protein details: R&D Systems, variant of aptamer ID 26): > 1 µM

GGGAGACUCGCCAGAGUUGAAAGAAACCCAAAUAAGUGUGCGCAC [aptamer ID 26(52)]
IC50 ([4]; 2'-F pyrimidines except 2'-OMe at 7,8,9,11,12,17,18,33,37,39,45, 2'-OMe purines except 2'-OH at 3,19,20,26, 5' idT and 3' idT, TF-1 growth (TrkC + p75), NT-3 0.074 nM, protein details: R&D systems, variant of aptamer ID 26(49)): > 1 µM

GGGAGACUCGCCAGAGUUGAAAGAAACCCAAAUAAGUGUGCGCAC [aptamer ID 26(63)]
IC50 ([4]; 5' and 3' idT, 2'-OMe purines except ribo g3,g19,a20,a26, 2'-F c28,c41,c43, dC27,dC29, other pyrimidines 2'-OMe, TF-1 TrkC/p75 proliferation, protein details: R&D Systems, variant of aptamer ID 26(19)): > 1 µM

GGGAGACUCGCCAGAGUUGAAAGAAACCCAAAUAAGUGUGCGCAC [aptamer ID 26(64)]
IC50 ([4]; 2'-F pyrimidines except 2'-OMe at 7,8,9,11,12,17,18,33,37,39,45, 2'-OMe purines except 2'-OH at 3,19,20,26, 5' PEG80TS4 (ssH linker), 3' idT, TF-1 growth (TrkC + p75), NT-3 0.074 nM, protein details: R&D systems, variant of aptamer ID 26(52)): > 1 µM

GGGAGACUCGCCAGAGUUGAAAGAAACCCAAAUAAGUGUGCGCAC [aptamer ID 26(65)]
IC50 ([4]; 5' PEG80TS4 via ssH linker, 3' idT, 2'-OMe purines except ribo g3,g19,a20,a26, 2'-F c28,c41,c43, dC27,dC29, other pyrimidines 2'-OMe, TF-1 TrkC/p75 proliferation, protein details: R&D Systems, variant of aptamer ID 26(19)): > 1 µM

GGGAGACUCGCCAGAGUUGAAAGAAACCCAAAUAAGUGUGCGCAC [aptamer ID 26(-)]
binding result [5]: no binding
